Our source for the Bmax values is paper PMC8847198, “The Influence of AA29504 on GABAA Receptor Ligand Binding Properties and Its Implications on Subtype Selectivity” (Neurochemical Research, 2021).

SMILES strings stand for the structures.

This series concerns GABAARs in δKO mouse forebrain membranes. In words: Saturation analysis of [^3H]muscimol binding, δKO forebrain membranes. How it is done:
WT and δKO forebrain membranes were prepared using the method of Squires and Saederup as modified by Uusi-Oukari et al.. Homogenized and washed membranes were suspended in 10 mM Tris–HCl, pH 7.4 and stored at -70 °C.
The effect of AA29504 on the association and dissociation of [^3H]muscimol binding was measured essentially as described by Benkherouf et al.. Saturation analysis of [^3H]muscimol was performed essentially as described by Uusi-Oukari and Korpi. Triplicate samples of the membranes were incubated in assay buffer with a concentration series of [^3H]muscimol (1–50 nM) at room temperature (22 °C) for 60 min in the absence and presence of 10 µM AA29504. […] .
GraphPad Prism software (GraphPad, San Diego, CA, USA) was used for nonlinear least squares curve-fitting and statistical testing of association, dissociation, saturation binding and radioligand displacement data. The association and dissociation curves were used for the estimation of association (Kon) and dissociation (Koff) rate constants. Saturation binding curves were used for the estimation of total number of high-affinity binding sites (Bmax), and equilibrium dissociation constants (KD). […] . Statistical comparisons were made with One-way ANOVA, Two-way ANOVA or Brown-Forsythe and Welch ANOVA followed by the relevant (Tukey’s or Dunnett’s) post hoc tests for multiple comparisons. […] . […]

`[3H]C([3H])(N)c1cc(=O)[nH]o1` [[^3H]muscimol]: the Bmax reads like this: (with AA29504 (10 µM), 22 °C) 8.1 ± 0.6 pmol/mg protein; (without AA29504, 22 °C) 6.1 ± 0.6 pmol/mg protein.
